## Primary screen of a compound library

Results are given as percent effect.
The controls that fix the scale are not given in the record; negative values are as filed.
The compounds are a random part of those screened.
A dash means the value is not listed here; it may have been measured.

Mtb growth Cornell: 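Whole-cell assay for inhibitors of Mycobacterium tuberculosis growth, labelled Cornell in the record; the read-out is not stated. The concentration is filed as 10 mM, unlikely as a test dose, so the dose is not known. Higher means stronger inhibition (inferred from two other growth screens of the library). Of about 53,000 compounds tested this way, about 900 (1.7%) reached 50% or more in at least one test.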
Mtb heat-shock: 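Assay on Mycobacterium tuberculosis, filed only as a heat shock assay from Cornell; the read-out is not stated. The concentration is filed as 10 mM, unlikely as a test dose, so the dose is not known. The record gives no direction; compounds that gave an IC50 in retests scored well above the rest, so higher reads as stronger inhibition. About 69,000 compounds were tested under these conditions; 1.4% (about 930) showed 50% or more at least once.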

Compound | Mtb growth Cornell | Mtb heat-shock
CC/C=C(\C)CN1CCC(CNC(=O)c2ccnc(N)c2)C1 (centres unmarked) | -24.08% | -22.37%
[H][C@]12CC[C@]([H])(CN(C(=O)c3ccncc3)C1)N(S(=O)(=O)c1cccnc1)C2 | 0.7237% | -16.61%
N#Cc1cccc(OCc2ccoc2C(=O)N2CCCCC2)c1 | 25.92% | -14.97%
Cc1ccc(CN2CCC3(CC2)C(=O)N(C)c2ccccc23)s1.O=C(O)C(F)(F)F | 22.38% | 67.96%
Cc1noc(C2CCCN(C(=O)c3ccc(Br)cc3F)C2)n1 (centres unmarked) | - | -1.776%
CCc1nc(CN(C)CC(=O)N(C)C2CC2)cs1 | -6.633% | 17.86%
Cc1c(NC(=O)c2cnc[nH]2)cccc1C(=O)NC(C)(C)C | - | 2.898%
COc1ccc(C2CCCN2C(=O)Nc2ccc(OC)nc2)cc1 (centres unmarked) | 1.248% | 14.46%
Cc1ccccc1C(C(=O)NCCN1CCC(CO)CC1)N(C)C (centres unmarked) | -27.26% | -2.731%
COC[C@]1(O)CCN(C2CCN(c3ccc(Cl)cc3)CC2)CC1(C)C | -6.775% | -5.873%
Cc1ccc(C(=O)N2CCC3(CC2)CN(c2ccccn2)CCO3)cc1.O=C(O)C(F)(F)F | 18.25% | -9.264%
CC1CN(C)c2ccccc2CN1C(=O)NCc1ccon1 (centres unmarked) | 18.32% | 2.92%
CC(C)Cn1nc2ccc(S(=O)(=O)N3CCC(C)CC3)cn2c1=O | 2.551% | 5.231%
Cc1nc2cc(C(=O)N3CCn4c(nnc4C4CC4)C3)ccc2s1 | -2.529% | 7.291%
CCCN(CC)C(=O)c1ncn2c1CN(C)S(=O)(=O)c1ccccc1-2 | 5.388% | -5.313%
CN(C)CCn1c2c(ccc1=O)CCN(Cc1ccncc1)CC2 | 2.987% | 34.65%
CN(C)CCn1c2c(ccc1=O)CC(NCc1cnn(C)c1)CC2.O=C(O)C(F)(F)F.O=C(O)C(F)(F)F (centres unmarked) | -4.885% | 21.9%
CC(C)N1CCN(C(=O)Cc2csc(-c3ccco3)n2)CC1 | 3.641% | -12.01%
O=S(=O)(c1ccccc1)N1CCCN(CCCn2ccnc2)CC1 | 6.398% | 6.896%
COc1ccc(CNC[C@@]2(COc3cccnc3)C[C@@H](O)[C@@H](O)C2)cc1.Cl | -36.23% | -47.26%
Cc1nc(C)n(CC2CCCCN2CC(=O)NC2CCOCC2)n1 (centres unmarked) | -14.69% | -3.588%
[H][C@@]12CCN(C[C@@H]1CC)[C@@H](CNCc1ccc3c(c1)OCO3)C2 | - | -40.5%
COc1cccc(CNC(=O)CN2CCCC(Cn3cncn3)C2)c1 (centres unmarked) | -43.6% | -8.36%
CCc1nnc(C(C)N2CCN(CCC(=O)NC3CC3)CC2)o1 (centres unmarked) | -15.04% | -4.827%
CCS(=O)(=O)CCNC(=O)c1cc2n(n1)CCCO2 | 15.91% | 5.799%
COc1cc(C)nc(N2CCN(C(=O)c3ccc(Cl)o3)CC2)n1 | 13.87% | 12.45%
Cn1cc(CC(=O)N2CCCC(c3ccn[nH]3)C2)cn1 (centres unmarked) | 11.83% | 3.2%
CC(c1cccnc1)N1CCN(CCO)CC1 (centres unmarked) | 7.521% | -5.233%
C[C@@H](NCc1cccc(Cl)c1)c1onc(-c2ccc(F)cc2)c1C(=O)O.Cl | 3.08% | -14.66%
O=C(c1ccccc1N1CCOCC1)N1CCCC(n2ccnc2)C1 (centres unmarked) | - | -4.394%
Cc1cc(Oc2ccc(NC(=O)C3CC3)cc2)cc(C2CCNCC2)n1.Cl | 40.9% | 4.147%
Cc1nc(C)n(CC2CN(Cc3cc(C#N)ccc3F)CCO2)n1 (centres unmarked) | 13.34% | -7.16%
Cc1cc(N2CCC(C(=O)N(C)C)CC2)nc(-c2ccncc2)n1 | - | -18.09%
CC(=O)N1CCN([C@@H]2CN(C(=O)Cc3ccccc3C)C[C@H]2O)CC1 | -6.856% | 7.162%
CN(Cc1cnn(C)c1)C(=O)NC1CCN(c2ncccn2)CC1 | -13.54% | -21.67%
CO[C@@H]1CC[C@@H](N(C)C(=O)COc2ccc(F)cc2)[C@H]1O | - | 2.781%
CCN(Cc1cc(Cl)c(O)c(OC)c1)Cc1nc(COC)no1 | 11.42% | 6.166%
CC(C)c1nnc2n1CCN(CC(=O)Nc1sccc1C#N)C2 | 6.691% | -20.84%
COc1ccc(S(=O)(=O)Nc2cnc(N(C)C)nc2)cc1 | -14.34% | -8.578%
CCNC(=O)NC(=O)CN(CC(C)O)c1ccccc1 (centres unmarked) | -17.43% | 12.38%
CC(C)(NC(=O)c1cnc(-c2ccccc2F)s1)C(N)=O | 26.56% | -1.06%
[H][C@]12C[C@@H](C(=O)NCc3cccs3)CO[C@@]1([H])CCN(CC)C2 | -56.6% | 64.41%
CC1CCN(S(=O)(=O)N2CCCN(CC3CCCO3)CC2)CC1 (centres unmarked) | 37.43% | -2.502%
CCN1CCC2(CC1)CC(NC(=O)c1c[nH]cn1)c1ccccc1O2 (centres unmarked) | 6.632% | 11.74%
CN(C)Cc1nn(C)c2c1CN(C(=O)c1cccc(C#N)c1)C2 | 3.743% | -6.333%
COCCO[C@@H]1CCN(c2cc(OC)ncn2)[C@H]1Cc1cnn(C)c1 | 11.35% | 6.793%
Cc1c(C2CCCN(C(=O)c3cccnc3)C2)n2c(nc1=O)CCC2 (centres unmarked) | -4.819% | -15.13%
Cn1nc(CN2CCOCC2)c2c1CN(C(=O)c1ccc[nH]1)C2 | -18.72% | -3.385%
CC(C)CC(=O)N1CCCC1c1nccnc1Nc1ncccn1 (centres unmarked) | - | -41.79%
COCc1cc(O)nc(C2CCCN(Cc3cccc(Cl)c3Cl)C2)n1 (centres unmarked) | - | -11.24%
CC(C)(C)S(=O)(=O)c1ccc(N2CCC(n3ccnc3)CC2)cn1 | 19.22% | 9.227%
Cc1cc(C)nc(NCc2nnc3n2CCCCC3)n1 | 16.32% | -21.72%
C[C@@H]1CN(CCC(=O)N(C)Cc2ccccc2)C[C@@]1(O)C1CCC1 | 10.99% | 2.307%
Cc1nc(C)n(CC2CCCN2Cc2cn3cc(Cl)ccc3n2)n1 (centres unmarked) | -33.65% | -20.39%
CN(Cc1cnccn1)C(=O)c1ccnc(OC2CCC2)c1 | - | -13.16%
O=S(=O)(NCCn1ccc(-c2ccccn2)n1)C1CC1 | -19.89% | -12.32%
Cc1nnc(C(C)N2CCN(Cc3ccc4c(c3)OCO4)CC2)o1 (centres unmarked) | -16.09% | 13.76%
CCn1cc(CNC(=O)CCn2ncc3c(Cl)cccc32)cn1 | - | -4.558%
CC(O)CN(CC(=O)NC1CCCCC1)c1ccccc1 (centres unmarked) | -18.84% | 1.595%
Cc1nc(CC(C)C)sc1C(=O)N1CCC(C2(C)OCCO2)CC1 | - | 3.201%
COCCc1ncc(CNC2(c3ccc(Cl)cc3Cl)CC2)cn1 | -25.15% | -11.29%
O=C(NCc1ccoc1)NC1CCN(c2ncccn2)CC1 | -22.45% | 8.825%
COCc1noc(-c2ccc(N(C)Cc3c(C)n[nH]c3C)nc2)n1 | 6.571% | -6.705%
CC(=O)N(C)CCCc1cc(-c2ccccc2)no1 | - | 32.73%
CCc1nccn1C1CCCN(C(=O)c2ccc3[nH]nnc3c2)C1 (centres unmarked) | 2.339% | -11.82%
CCCc1cncnc1N1CCC(NCc2ccc(O)cc2)CC1 | 28.01% | -4.464%
CN(C)CCn1ccnc1C1CCCN(c2cc(N)ncn2)C1 (centres unmarked) | -36.76% | -38.12%
CCN1CCC2(CC1)CC(CC(=O)N(C)C)c1ccc(F)cc12 (centres unmarked) | -52.41% | 38.66%
CN1CC(=O)N(c2cccc(F)c2)CC12CCN(Cc1cnn(C)c1)C2.O=C(O)C(F)(F)F.O=C(O)C(F)(F)F (centres unmarked) | -6.359% | -4.947%
O=C(O)C(F)(F)F.[H][C@@]12COC[C@]1(C(=O)NC1CC(F)(F)C1)CN(c1cc(OC)ncn1)C2 | 23.3% | -31.63%
O=C1CCCC2=C1C(c1ccccc1Cl)Nc1nonc1N2 (centres unmarked) | 12.75% | 3.129%
Cc1ccc(C(=O)N2CCc3ncc(Cn4cccn4)n3CC2)o1 | 11.81% | -11.88%
O=C(C1CCC1)N1CCC2(COCc3cnc(-c4cccnc4)nc32)C1 (centres unmarked) | 17.44% | -3.399%
CN(Cc1ccc(F)c(F)c1)C(=O)CCc1nc(-c2nnc[nH]2)no1 | 24.75% | 5.543%
COc1cccc(NC(=O)N(CCO)C2CCc3ccccc32)c1 (centres unmarked) | -5.204% | 32.76%
O=C(c1cnccn1)N1C[C@@H](c2ccccc2)[C@@]2(CCNC2=O)C1 | 25.57% | -25.07%
CN(C)CCN1C(=O)C2(CCN(CC3CC3)CC2)c2ccccc21.O=C(O)C(F)(F)F.O=C(O)C(F)(F)F | 11.9% | 2.693%
CN1CCC(c2cccc(C(=O)N(C)C)n2)CC1 | -12.83% | 12.78%
CS(=O)(=O)N1CCCn2nc(CNc3cc(C#N)ccn3)cc2C1 | - | 0.8935%
CNc1cc(C)nc(NC2CCCN(C3Cc4ccccc4C3)C2)n1 (centres unmarked) | 9.569% | 6.293%
N#Cc1cc(NC(=O)c2cscn2)ccc1N1CCC(O)CC1 | 37.37% | 9.069%

Once more, the final 5:

For CN(C)CCN1C(=O)C2(CCN(CC3CC3)CC2)c2ccccc21.O=C(O)C(F)(F)F.O=C(O)C(F)(F)F the result was Mtb growth Cornell: 11.9%; Mtb heat-shock: 2.693%.
For CN1CCC(c2cccc(C(=O)N(C)C)n2)CC1 the result was Mtb growth Cornell: -12.83%; Mtb heat-shock: 12.78%.
For CS(=O)(=O)N1CCCn2nc(CNc3cc(C#N)ccn3)cc2C1 the result was Mtb heat-shock: 0.8935%.
For CNc1cc(C)nc(NC2CCCN(C3Cc4ccccc4C3)C2)n1 (centres unmarked) the result was Mtb growth Cornell: 9.569%; Mtb heat-shock: 6.293%.
For N#Cc1cc(NC(=O)c2cscn2)ccc1N1CCC(O)CC1 the result was Mtb growth Cornell: 37.37%; Mtb heat-shock: 9.069%.

Source: ChEMBL document CHEMBL3988442, “University of Dundee, Small-Polar-MMV Screening Library” (2021).